Source: the supplement of paper PMC10849652
Some of the results follow.

The chains behind the UniProt entries cited, without tags or fusion partners. Where a name states a change or a piece, a line headed by the entry shows the natural chain unless it says otherwise.
UniProt P08758: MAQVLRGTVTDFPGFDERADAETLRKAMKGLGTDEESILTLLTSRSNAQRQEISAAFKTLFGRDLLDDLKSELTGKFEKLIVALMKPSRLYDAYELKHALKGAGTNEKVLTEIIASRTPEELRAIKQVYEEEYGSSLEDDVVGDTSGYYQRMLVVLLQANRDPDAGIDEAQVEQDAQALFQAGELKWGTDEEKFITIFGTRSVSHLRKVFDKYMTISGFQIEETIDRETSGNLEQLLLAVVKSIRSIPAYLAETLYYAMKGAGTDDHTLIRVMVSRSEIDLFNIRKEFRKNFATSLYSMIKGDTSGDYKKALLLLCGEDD
UniProt O94788: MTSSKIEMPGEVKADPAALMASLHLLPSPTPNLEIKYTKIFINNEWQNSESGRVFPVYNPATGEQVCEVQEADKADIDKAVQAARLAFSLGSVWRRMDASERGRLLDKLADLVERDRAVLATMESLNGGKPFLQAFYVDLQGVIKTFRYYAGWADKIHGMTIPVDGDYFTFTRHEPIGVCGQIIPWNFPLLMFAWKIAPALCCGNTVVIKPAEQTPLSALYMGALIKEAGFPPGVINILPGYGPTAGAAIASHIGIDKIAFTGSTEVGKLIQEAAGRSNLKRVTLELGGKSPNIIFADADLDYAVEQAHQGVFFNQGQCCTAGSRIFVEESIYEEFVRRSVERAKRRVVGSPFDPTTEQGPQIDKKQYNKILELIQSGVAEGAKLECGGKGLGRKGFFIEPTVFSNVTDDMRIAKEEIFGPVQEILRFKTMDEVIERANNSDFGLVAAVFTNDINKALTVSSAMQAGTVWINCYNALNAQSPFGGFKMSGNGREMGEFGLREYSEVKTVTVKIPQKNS
UniProt O43747: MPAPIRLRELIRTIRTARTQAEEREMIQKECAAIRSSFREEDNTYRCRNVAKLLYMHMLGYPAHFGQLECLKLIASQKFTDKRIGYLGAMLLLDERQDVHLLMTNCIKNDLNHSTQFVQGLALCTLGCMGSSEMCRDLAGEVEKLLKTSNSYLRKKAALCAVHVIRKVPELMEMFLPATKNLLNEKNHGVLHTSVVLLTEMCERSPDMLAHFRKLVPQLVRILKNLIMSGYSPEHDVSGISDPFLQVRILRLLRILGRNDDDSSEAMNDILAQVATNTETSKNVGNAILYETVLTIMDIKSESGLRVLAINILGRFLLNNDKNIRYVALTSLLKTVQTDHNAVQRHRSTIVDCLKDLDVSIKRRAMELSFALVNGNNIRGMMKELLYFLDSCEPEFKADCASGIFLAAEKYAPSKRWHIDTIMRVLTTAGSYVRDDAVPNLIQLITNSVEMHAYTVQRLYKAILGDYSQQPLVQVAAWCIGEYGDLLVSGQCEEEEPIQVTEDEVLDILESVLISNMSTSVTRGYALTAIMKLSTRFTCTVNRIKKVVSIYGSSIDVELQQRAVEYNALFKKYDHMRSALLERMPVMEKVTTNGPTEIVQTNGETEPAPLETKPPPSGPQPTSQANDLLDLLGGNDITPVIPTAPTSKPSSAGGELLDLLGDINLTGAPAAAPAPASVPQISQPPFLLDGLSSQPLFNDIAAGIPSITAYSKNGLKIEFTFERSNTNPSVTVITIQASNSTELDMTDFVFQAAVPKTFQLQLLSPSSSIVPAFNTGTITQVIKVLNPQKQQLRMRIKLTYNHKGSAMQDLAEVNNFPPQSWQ
UniProt Q6DCA0: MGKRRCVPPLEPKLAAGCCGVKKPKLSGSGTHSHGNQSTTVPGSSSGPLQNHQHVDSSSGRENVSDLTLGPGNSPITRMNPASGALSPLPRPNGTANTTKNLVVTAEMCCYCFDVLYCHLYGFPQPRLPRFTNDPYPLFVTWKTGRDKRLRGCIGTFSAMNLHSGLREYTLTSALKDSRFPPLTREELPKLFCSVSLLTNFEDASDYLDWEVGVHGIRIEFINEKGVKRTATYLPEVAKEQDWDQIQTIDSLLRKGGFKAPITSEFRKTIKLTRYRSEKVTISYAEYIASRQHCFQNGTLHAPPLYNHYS
UniProt Q92688: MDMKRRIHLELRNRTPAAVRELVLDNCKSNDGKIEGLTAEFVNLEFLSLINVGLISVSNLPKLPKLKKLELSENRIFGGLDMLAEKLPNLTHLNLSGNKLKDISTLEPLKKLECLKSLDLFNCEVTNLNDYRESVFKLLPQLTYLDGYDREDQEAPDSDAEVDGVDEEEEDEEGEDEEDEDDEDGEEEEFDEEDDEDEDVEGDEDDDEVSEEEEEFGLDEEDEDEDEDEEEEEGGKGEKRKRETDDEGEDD
UniProt Q9P2R3: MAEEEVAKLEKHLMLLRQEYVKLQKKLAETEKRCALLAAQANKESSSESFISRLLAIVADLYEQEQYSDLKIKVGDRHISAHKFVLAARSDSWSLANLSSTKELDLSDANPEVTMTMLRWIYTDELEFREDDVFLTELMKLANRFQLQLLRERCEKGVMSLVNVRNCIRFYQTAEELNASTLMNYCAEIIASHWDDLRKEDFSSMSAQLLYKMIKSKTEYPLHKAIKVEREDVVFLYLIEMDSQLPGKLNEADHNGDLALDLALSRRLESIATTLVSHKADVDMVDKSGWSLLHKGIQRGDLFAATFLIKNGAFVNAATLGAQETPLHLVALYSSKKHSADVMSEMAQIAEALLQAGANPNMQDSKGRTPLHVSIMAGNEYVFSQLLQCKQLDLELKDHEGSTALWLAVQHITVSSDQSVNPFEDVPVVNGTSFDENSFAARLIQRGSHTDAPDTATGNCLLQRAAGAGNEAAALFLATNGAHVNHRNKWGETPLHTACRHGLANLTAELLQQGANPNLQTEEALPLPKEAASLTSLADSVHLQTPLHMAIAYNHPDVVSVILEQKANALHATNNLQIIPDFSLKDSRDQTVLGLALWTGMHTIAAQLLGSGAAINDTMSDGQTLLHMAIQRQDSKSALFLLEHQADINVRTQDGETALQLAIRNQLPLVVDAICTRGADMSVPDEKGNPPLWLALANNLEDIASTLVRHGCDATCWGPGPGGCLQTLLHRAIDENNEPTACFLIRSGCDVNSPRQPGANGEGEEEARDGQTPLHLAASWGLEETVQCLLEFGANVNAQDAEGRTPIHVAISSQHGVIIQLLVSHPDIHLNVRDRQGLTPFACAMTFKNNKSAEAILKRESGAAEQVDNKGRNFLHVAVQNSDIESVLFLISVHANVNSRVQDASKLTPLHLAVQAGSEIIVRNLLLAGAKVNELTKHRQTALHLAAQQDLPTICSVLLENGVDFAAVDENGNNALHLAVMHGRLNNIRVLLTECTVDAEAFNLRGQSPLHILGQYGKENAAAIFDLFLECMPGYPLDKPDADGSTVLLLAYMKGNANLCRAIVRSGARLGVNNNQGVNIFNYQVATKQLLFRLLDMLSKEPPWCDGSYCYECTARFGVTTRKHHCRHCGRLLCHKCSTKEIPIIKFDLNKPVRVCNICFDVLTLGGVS
UniProt P30038: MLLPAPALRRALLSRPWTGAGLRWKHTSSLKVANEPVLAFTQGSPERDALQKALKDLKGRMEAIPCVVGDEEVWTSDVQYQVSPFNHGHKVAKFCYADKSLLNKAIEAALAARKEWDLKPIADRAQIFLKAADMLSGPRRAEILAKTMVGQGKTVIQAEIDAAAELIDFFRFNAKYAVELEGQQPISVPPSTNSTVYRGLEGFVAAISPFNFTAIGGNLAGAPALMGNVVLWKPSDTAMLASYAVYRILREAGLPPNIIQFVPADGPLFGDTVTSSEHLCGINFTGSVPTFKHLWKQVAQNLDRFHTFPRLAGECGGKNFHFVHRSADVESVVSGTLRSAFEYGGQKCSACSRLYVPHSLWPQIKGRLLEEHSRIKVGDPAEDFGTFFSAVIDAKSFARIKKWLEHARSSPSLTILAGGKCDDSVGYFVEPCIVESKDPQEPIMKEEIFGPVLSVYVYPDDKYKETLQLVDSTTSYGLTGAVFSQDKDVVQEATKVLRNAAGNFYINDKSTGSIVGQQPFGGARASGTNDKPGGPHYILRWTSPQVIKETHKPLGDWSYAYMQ
UniProt Q6NS38: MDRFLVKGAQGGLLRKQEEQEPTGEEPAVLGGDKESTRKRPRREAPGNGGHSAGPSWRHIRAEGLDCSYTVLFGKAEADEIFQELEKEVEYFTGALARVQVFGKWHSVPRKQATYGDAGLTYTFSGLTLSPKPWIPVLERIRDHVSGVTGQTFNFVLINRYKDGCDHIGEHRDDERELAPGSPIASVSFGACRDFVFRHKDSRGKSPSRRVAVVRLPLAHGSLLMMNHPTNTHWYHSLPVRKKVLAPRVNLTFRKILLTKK
UniProt Q9UJX4, whole entry, looked up: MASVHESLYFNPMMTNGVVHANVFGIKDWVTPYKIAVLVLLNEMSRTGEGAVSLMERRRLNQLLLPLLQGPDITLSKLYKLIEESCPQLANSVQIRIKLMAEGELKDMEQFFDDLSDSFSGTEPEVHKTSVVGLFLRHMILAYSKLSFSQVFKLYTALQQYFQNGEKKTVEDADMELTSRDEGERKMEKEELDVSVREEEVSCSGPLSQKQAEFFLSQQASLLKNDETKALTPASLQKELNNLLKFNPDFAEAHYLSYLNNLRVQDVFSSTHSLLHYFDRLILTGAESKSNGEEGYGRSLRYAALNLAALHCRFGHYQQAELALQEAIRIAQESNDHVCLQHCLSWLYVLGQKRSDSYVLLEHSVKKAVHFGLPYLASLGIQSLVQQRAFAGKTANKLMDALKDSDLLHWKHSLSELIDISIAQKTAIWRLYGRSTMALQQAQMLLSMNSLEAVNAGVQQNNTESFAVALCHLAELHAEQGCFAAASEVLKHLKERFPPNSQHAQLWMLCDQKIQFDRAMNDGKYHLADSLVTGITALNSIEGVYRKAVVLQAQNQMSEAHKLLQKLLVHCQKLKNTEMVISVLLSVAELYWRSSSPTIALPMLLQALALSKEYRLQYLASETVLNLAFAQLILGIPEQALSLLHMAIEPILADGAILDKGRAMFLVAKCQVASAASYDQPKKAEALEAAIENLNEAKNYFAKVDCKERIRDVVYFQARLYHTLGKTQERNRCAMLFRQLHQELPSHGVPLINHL
UniProt P61966: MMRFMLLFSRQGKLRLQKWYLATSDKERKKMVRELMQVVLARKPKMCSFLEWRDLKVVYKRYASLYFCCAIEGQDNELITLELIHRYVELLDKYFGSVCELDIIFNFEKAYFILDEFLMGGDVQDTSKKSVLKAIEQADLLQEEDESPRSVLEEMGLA
UniProt P30837: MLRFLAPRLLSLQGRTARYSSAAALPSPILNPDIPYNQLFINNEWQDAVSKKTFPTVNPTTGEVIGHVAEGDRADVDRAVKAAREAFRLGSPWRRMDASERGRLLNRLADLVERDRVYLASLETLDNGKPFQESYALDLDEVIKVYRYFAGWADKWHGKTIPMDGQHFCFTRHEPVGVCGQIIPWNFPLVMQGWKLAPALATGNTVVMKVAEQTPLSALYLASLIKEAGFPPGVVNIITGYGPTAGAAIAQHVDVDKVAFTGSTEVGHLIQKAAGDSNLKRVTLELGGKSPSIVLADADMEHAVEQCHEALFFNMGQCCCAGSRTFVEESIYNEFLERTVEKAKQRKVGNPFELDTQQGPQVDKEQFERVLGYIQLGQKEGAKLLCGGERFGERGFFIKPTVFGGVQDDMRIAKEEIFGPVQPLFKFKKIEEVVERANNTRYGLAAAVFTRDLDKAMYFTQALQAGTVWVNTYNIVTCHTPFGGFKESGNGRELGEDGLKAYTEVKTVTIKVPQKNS
UniProt Q3SY69: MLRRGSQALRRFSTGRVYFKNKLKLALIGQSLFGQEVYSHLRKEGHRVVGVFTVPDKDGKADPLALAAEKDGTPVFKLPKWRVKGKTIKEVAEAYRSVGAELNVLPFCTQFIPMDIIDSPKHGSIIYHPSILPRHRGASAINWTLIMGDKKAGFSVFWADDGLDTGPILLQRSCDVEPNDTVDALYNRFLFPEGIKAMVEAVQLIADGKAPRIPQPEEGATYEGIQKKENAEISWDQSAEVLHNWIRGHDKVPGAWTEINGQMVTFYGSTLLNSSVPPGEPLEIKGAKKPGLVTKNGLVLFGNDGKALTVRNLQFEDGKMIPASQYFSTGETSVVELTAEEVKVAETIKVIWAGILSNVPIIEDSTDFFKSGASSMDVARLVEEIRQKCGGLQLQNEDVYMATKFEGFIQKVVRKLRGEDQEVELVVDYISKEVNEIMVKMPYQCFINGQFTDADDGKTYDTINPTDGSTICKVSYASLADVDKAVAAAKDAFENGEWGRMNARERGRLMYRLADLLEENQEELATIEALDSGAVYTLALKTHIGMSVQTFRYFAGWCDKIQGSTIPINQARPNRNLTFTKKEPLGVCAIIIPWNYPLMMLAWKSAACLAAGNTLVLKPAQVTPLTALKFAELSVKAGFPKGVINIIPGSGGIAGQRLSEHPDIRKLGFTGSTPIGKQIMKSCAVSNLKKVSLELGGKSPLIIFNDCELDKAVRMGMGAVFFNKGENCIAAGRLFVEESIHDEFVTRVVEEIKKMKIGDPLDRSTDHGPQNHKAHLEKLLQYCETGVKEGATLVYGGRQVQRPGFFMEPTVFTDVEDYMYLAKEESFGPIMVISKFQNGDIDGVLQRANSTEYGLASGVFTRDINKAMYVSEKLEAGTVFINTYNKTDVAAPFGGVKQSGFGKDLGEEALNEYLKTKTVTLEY

compound: CNc1nc(-c2ccc3c(N)n[nH]c3c2)cc(N2C[C@@H](C(=O)NC3CCCCC3)CC[C@H]2C)n1; experiment: log2 fold change, soluble protein after heating vs DMSO (PISA); higher = thermal stabilisation; K562 lysate, 10 uM; active = over 0.2 and 3.5 SD of the protein, either way, in both replicates (recomputed)
In short: (§1)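 The values are log-two fold changes in thermal stability compared with solvent controls and come from duplicates. They were obtained by TMTpro 16plex LC-MS/MS, with channel sums equalised, on the supernatant after 21,000xg for 90 min. That supernatant came from crude K562 extract at 1 mg/mL protein treated with 10 μM compound for 30 min, heated for 3 min across 48°C-58°C, pooled and brought to 0.5% NP-40 at 4°C.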

log2 fold change, inactive:
ANKRD46 (UniProt Q86W74) -0.032
ANPEP (UniProt P15144) 0.001
ANXA5 (UniProt P08758) -0.067
ANAPC10 (UniProt Q9UM13) 0.009
ALDH1A2 (UniProt O94788) -0.008
AKT1S1 isoform 3 (UniProt Q96B36) 0.025
ANAPC7 (UniProt Q9UJX3) -0.03
AP1G1 isoform 2 (UniProt O43747) 0.002
AMMECR1L (UniProt Q6DCA0) -0.001
ALG8 (UniProt Q9BVK2) -0.012
ANXA2 isoform 2 (UniProt P07355) -0.026

compound: COC(=O)N[C@@H](C)CNc1nccc(-c2cn(C(C)C)nc2-c2cc(Cl)cc(NS(C)(=O)=O)c2F)n1 [encorafenib]; experiment: as above
In short: as §1

log2 fold change, inactive:
ALDH1A1 (UniProt P00352) -0.009
ALDOA (UniProt P04075) -0.044
ALG2 (UniProt Q9H553) -0.065
ANP32B (UniProt Q92688) -0.018
ANKRD30B (UniProt Q9BXX2) -0.113
ANKRD11 (UniProt Q6UB99) -0.031
ANKRD52 (UniProt Q8NB46) 0.047
AP3B2 isoform 4 (UniProt Q13367) 0.05
ALG13 (UniProt Q9NP73) 0.059
ANKFY1 isoform 4 (UniProt Q9P2R3) -0.024
AP4E1 (UniProt Q9UPM8) 0.055
ANKHD1 isoform 6 (UniProt Q8IWZ3) 0.036
ALDH4A1 (UniProt P30038) -0.036
ALDH9A1 isoform 3 (UniProt P49189) -0.036
ALKBH2 (UniProt Q6NS38) -0.014
ALDH6A1 (UniProt Q02252) -0.015
ANAPC5 (UniProt Q9UJX4) 0.039
AKT1 (UniProt P31749) 0.084
ANO10 (UniProt Q9NW15) 0.017
AP1S1 (UniProt P61966) 0.011
ALDH1B1 (UniProt P30837) -0.008
ALDH1L2 (UniProt Q3SY69) -0.002
ANPEP (UniProt P15144) 0.069
ANXA5 (UniProt P08758) -0.016
ANAPC10 (UniProt Q9UM13) 0
ALDH1A2 (UniProt O94788) -0.014
AKT1S1 isoform 3 (UniProt Q96B36) -0.02
ANAPC7 (UniProt Q9UJX3) 0.026
AP1G1 isoform 2 (UniProt O43747) 0.029
AMMECR1L (UniProt Q6DCA0) -0.025
ALG8 (UniProt Q9BVK2) 0.04
ANXA2 isoform 2 (UniProt P07355) -0.03
